Measurements taken from patent JPH07265077A.
Results are given in words; binding and its absence hold for the method and conditions named. Some results given as binding are weak or reduced against the parent protein; the word gives no strength.

The chains behind the UniProt entries cited, without tags or fusion partners. Residues count along the entry.
UniProt P03452, residues 18-565: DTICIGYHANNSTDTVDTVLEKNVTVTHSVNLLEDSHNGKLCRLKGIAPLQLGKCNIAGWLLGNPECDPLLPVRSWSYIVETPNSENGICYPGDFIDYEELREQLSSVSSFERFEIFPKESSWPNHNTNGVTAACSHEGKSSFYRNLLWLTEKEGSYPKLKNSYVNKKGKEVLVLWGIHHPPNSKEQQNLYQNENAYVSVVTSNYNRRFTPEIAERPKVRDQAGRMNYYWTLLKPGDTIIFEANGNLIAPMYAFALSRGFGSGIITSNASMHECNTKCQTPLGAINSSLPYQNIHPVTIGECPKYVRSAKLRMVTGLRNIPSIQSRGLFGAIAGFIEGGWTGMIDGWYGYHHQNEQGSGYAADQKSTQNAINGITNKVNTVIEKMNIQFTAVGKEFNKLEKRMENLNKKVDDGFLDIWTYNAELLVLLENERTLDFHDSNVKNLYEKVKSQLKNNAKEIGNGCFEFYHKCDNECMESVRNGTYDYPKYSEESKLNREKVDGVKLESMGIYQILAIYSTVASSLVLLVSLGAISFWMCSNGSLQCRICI

Biological target: Hemagglutinin (HA) of human influenza A virus A/PR/8/34 (H1N1サブタイプ) (human influenza A virus A/PR/8/34 (H1N1)) (UniProt P03452)
Assay: summary of reference example A-3 (staining of infected MDCK cells)

B1: モノクローナル抗体C179 (monoclonal antibody C179) (antibody, V domains shown)
VH: EVKLVESGGGLVQPGGSLRLSCGTSGFTLTDDYMTWVRQPPGKALEWLGFIRDRANGYTTEYSASVKGRFTISRDNSQSIVYLQMNTLRVEDSATYYCARPKGYFPYAMDYWGQGT
VL: DIQMTQSPASQSASLGESVTITCLASQTIGTWLAWYQQKPGKSPQLLIYAATSLADGVPSRFSGSGSGTKFSFKISSLQAEDFVSYYCQQLYSTPWTF
- binding: binds
